Values of other authors, collected in patent publication US6172079A, “5-substituted-3-oxadiazolyl-1,6-naphthyridin-2(1H)-one derivatives” (Dainippon Pharmaceutical Co., Ltd., priority 1997, dated 2001).

Test system: GABAA receptor
Conditions: background statement; cited from earlier work

CN1C(=O)CN=C(c2ccccc2)c2cc(Cl)ccc21 [diazepam]
uptake of Cl ion into cells: decreased
